Results from patent US11439707B2, “Hypocrellin derivative substituted both in a peri-position and in 2-position by amino, preparation method, and application thereof” (priority 2017, dated 2022).
Some entries repeat one wording, which the source may state once for all of them.

Test system: Hela cell
Assay: confocal fluorescence imaging
Assay type: cell-based
Conditions: FIG. 10

Structure (SMILES) | cell entry and localisation
COCCOCCOCCOCCOCCOCCOCCC(=O)OCCOCCNc1c2c3c4c(c(OC)c(=O)c5c(O)cc(OC)c(c6c(OC)cc(NCCOCCOC(=O)CCOCCOCCOCCOCCOCCOCCOC)c(c1=O)c63)c54)C(C(C)=O)C(C)=C2 (stereo not drawn) [HB-1c-PEG6] | able to enter a lysosome of a Hela cell
COc1c2c3c4c(c(NCCOCCO)c(=O)c5c(NCCOCCO)cc(OC)c(c6c(OC)cc(O)c(c1=O)c63)c54)C=C(C)C2C(C)=O (stereo not drawn) [HB-1c] | able to enter a lysosome of a Hela cell
COc1c(O)c2c(=O)cc(OC)c3c4c(OC)cc(=O)c5c(NCCC(=O)O)c(NCCC(=O)O)c6c(c(c1C(C(C)=O)C(C)=C6)c23)c54 (stereo not drawn) [HB-10a] | able to enter a lysosome of a Hela cell
